# In PMC6925144, “A prospective compound screening contest identified broader inhibitors for Sirtuin 1” (Scientific Reports, 2019):
# Chains of the proteins cited; added tags and fusions are not shown. Residues count along the entry.
# UniProt Q96EB6, 2-747 limits assumed: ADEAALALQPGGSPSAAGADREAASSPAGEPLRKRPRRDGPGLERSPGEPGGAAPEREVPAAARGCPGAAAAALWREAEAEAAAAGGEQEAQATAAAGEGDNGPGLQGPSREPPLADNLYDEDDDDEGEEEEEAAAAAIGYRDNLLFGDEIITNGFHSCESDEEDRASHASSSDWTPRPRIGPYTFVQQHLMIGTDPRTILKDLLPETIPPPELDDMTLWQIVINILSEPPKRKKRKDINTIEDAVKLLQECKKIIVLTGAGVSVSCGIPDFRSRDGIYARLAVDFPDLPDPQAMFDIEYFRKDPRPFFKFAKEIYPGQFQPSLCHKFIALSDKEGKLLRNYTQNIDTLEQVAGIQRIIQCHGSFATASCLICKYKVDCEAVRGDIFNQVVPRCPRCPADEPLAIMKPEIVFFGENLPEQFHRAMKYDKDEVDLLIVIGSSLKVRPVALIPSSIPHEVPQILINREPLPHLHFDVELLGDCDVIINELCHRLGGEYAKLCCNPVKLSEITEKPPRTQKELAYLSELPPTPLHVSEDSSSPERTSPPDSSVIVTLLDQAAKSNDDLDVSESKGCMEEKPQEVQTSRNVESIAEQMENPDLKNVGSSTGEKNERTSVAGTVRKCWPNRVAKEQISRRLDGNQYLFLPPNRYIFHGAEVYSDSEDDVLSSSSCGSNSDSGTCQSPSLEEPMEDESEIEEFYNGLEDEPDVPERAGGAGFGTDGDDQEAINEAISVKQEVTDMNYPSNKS
# Whole data set: some 3,200 compounds, median “TSA(with NAD+) / Primary screening (TSA) / delta Tm (K)” near -0.04, cut for the highest 2% near 0.37. The list shows a part of the results.
# Target: NAD-dependent deacetylase Sirtuin 1 (human, UniProt Q96EB6)
# Test: primary screen, delta tm
# Parameters: single well (n = 1, as 'the same TSA')
# Conditions: 10 µM
row,Compound,TSA(with NAD+) / Primary screening (TSA) / delta Tm (K)
1,CC(C)(C)OC(=O)N1CCC(CC(=O)Nc2ccccc2-c2nc3ccccc3[nH]2)CC1,0.25 K
2,C=CCNC(=O)CN1CCN(c2ncnc3sc4c(c23)CCC4)CC1,-0.18 K
3,O=C(COC(=O)C(Cc1ccccc1)NC(=O)c1ccccc1)NCC12CC3CC(CC(C3)C1)C2 (stereo not drawn),-0.12 K
4,Cc1nc(N2CCC(C(N)=O)CC2)c2c3c(sc2n1)CCCC3,0.57 K
5,COCC(C)C(=O)O (stereo not drawn),0.01 K
6,NC(=O)c1cnc(NC(=O)Cc2cc3c(ccc4ccccc43)o2)s1,0.11 K
7,Cc1ccc2nc(-c3ccc(NC(=O)C(C)Cl)cc3)sc2c1 (stereo not drawn),0.19 K
8,COc1ccccc1C(=O)NC(CCSC)C(=O)NCCN1C(=O)S/C(=C/c2ccc3c(c2)OCO3)C1=O (stereo not drawn),0.07 K
9,Oc1ccccc1N1CCN(CCCc2cncc(F)c2)CC1,0.05 K
10,CCCCNC(=O)CN1CCN(c2ncnc3cc(Cl)ccc23)CC1,-0.01 K
11,O=C(O)C1CC(=O)N(c2cccc(-c3nc(C4CC4)no3)c2)C1 (stereo not drawn),-0.22 K
12,CN(c1cnccn1)S(=O)(=O)c1ccc2c(c1)C(C)(C)C(=O)N2,0.09 K
13,Cc1ccc2c(COc3ncnc4sc5c(c34)CCCC5)cc(=O)oc2c1,0.16 K
14,CCc1ccc(C(CO)NCc2cn3cc(Cl)ccc3n2)cc1 (stereo not drawn),0.07 K
15,C=CCOc1ccc(C2C(C(=O)c3ccccc3)=C(O)C(=O)N2CCCN2CCOCC2)cc1 (stereo not drawn),-0.02 K
16,Cc1ccc2oc(=N)c3c(N)nc(-c4ccc5c(c4)OCO5)cc3c2c1,-0.03 K
17,CCC(=O)c1ccc(OCC(=O)NNC(=O)c2cc(C)oc2C)cc1,-0.03 K
18,Cc1cc(C)cc(OCC(=O)N2Cc3ccccc3CC2C(=O)O)c1 (stereo not drawn),-0.13 K
19,O=C(CSCC(=O)Nc1cccc2ccccc12)Nc1ccccc1F,-0.16 K
20,Cc1cccc(-c2ccc(C(=O)N3CCc4ccccc4C3)c(=O)[nH]2)c1,0.06 K
21,NC(=S)c1ccc(C(=O)NC2CCC(O)CC2)cc1 (stereo not drawn),-0.18 K
22,O=S(=O)(NCCNS(=O)(=O)c1cccs1)c1cccs1,-0.09 K
23,COc1ccc2[nH]c3c(N(C)C)ncnc3c2c1,-0.14 K

row,Compound,TSA(with NAD+) / Primary screening (TSA) / delta Tm (K)
1,CSc1cccc(N2CC(C(=O)OCC(N)=O)CC2=O)c1 (stereo not drawn),-0.12 K
2,O=C(Nc1ccccc1)C1CCN(C(=O)c2cccc(S(=O)(=O)NCc3ccccc3)c2)CC1,-0.19 K
3,COC(C)CCN (stereo not drawn),-0.16 K
4,Cc1ccc(CN(C)CC(=O)Nc2ccc3c(c2)OCCCO3)cc1,-0.08 K
5,CC(C)Cc1ccc(C(NC(C)C(=O)Nc2ccc(C(N)=O)cc2)C(C)C)cc1 (stereo not drawn),-0.13 K
6,CC(=O)Nc1ccc(C(=O)Nc2cccc(S(=O)(=O)NCc3ccco3)c2)s1,0.02 K
7,CCc1cc2c(N3CCN(Cc4ccc5c(c4)OCO5)CC3)nc(C)nc2s1,-0.04 K
8,Cc1ccc(N(C)S(=O)(=O)c2cccc(C(=O)Nc3ccncc3)c2)cc1,-0.15 K
9,CN(C)c1ccc(C=C2C(=O)NC(=S)NC2=O)cc1,-0.21 K
10,COc1ccc(C(=O)OCC(=O)NC(Cc2ccccc2)C(C)=O)cc1S(=O)(=O)N1CCCC1 (stereo not drawn),-0.01 K
11,Cc1ccc2nc(CSc3nnc(NCc4ccco4)s3)cc(=O)n2c1,-0.01 K
12,O=C(/C=C/c1ccc(S(=O)(=O)N2CCc3ccccc32)cc1)Nc1cccc(S(=O)(=O)NCc2ccco2)c1,0.26 K
13,NC(=O)C1CCCN1Cc1nc2cc(Br)cnc2[nH]1 (stereo not drawn),-0.19 K
14,CCOc1ccc2oc(C(=O)NN3C(C)CCCC3C)c(C)c2c1 (stereo not drawn),-0.11 K
15,CCN(CC(=O)OC(C)C(=O)NC(N)=O)Cc1ccc(Cl)cc1 (stereo not drawn),-0.09 K
16,CC(Sc1nc(N)nc(N)n1)C(=O)N1CCOCC1 (stereo not drawn),-0.02 K
17,CCN(CC)C(CNC(=O)CNC(=O)c1ccoc1C)c1ccco1 (stereo not drawn),0.05 K
18,CN(c1ccccc1)S(=O)(=O)c1cccc(NC(=O)CCc2c[nH]c3ccccc23)c1,0.32 K
19,O=C(Nc1cccc(S(=O)(=O)NCc2ccco2)c1)c1ccc(COc2ccccc2)o1,0.06 K
20,COc1ccc(CCNC(=O)c2ccccc2NS(=O)(=O)CC23CCC(CC2=O)C3(C)C)cc1 (stereo not drawn),-0.01 K
21,O=C(NCc1ccccc1)/C(=C/c1ccc(OCc2ccccc2)cc1)c1nc2ccccc2[nH]1,0.19 K
22,N#Cc1ccc(CN2CCC(CCc3ccc(O)cc3)CC2)c(F)c1,-0.24 K
23,NC(=O)c1ccc(S(=O)(=O)NNC(=O)c2cc3c(s2)CCCCC3)cc1,-0.03 K

row,Compound,TSA(with NAD+) / Primary screening (TSA) / delta Tm (K)
1,CC(OC(=O)c1c2ccccc2cc2ccccc12)C(=O)c1ccccc1 (stereo not drawn),-0.03 K
2,O=C(CCc1nc2ccccc2s1)Nc1ccc(N2CCN(Cc3ccccc3)CC2)cc1,0.06 K
3,CC(OC(=O)Cc1coc2cc(O)ccc12)C(=O)Nc1ccc(C(N)=O)cc1 (stereo not drawn),-0.14 K
4,CNC(=O)c1ccc2[nH]c3c(c2c1)CCCC3,0.25 K
5,CS/C(=N/S(=O)(=O)c1cccs1)NS(=O)(=O)c1ccc(N)cc1,-0.14 K
6,Cc1ccc(C(=O)NNC(=O)c2ccc(S(=O)(=O)N3CCCC3)cc2)cc1,-0.09 K
7,Cc1nn(-c2ccccc2)c(C)c1NC(=O)COC(=O)c1ccc2[nH]c(C)c(C)c2c1,-0.08 K
8,NC(=O)c1ccc(C(=O)NC2CCN(C(=O)NC3CCCCC3)CC2)cc1,0.08 K
9,O=C(CC12CC3CC(CC(C3)C1)C2)NNC(=O)[C@H](Cc1ccccc1)N1C(=O)c2ccccc2C1=O,0.05 K
10,CCc1nnc(NC(=O)Nc2ccc(O)cc2C)s1,-0.11 K
11,Cc1nc2cc(C(=O)NCc3nnc4ccccn34)ccc2n1-c1ccccc1,-0.05 K
12,CC(C)[C@H](NC(=O)Cc1cccc2ccccc12)C(=O)OCC(=O)NC12CC3CC(CC(C3)C1)C2,0.01 K
13,C#C[C@]1(O)CC[C@H]2[C@@H]3CCC4=CC(=O)CC[C@@H]4[C@H]3CC[C@@]21CC,-0.23 K
14,Cc1nnc(CNC(=O)c2cc(-c3ccccc3)nc3c(C(N)=O)ncn23)s1,-0.13 K
15,NS(=O)(=O)CCNc1ncnc2ccsc12,0.08 K
16,Cc1cc(C(=O)COC(=O)c2cc(S(=O)(=O)N3CCCCC3)ccc2N2CCCCC2)c(C)n1CC1CCCO1 (stereo not drawn),-0.05 K
17,Nc1ccc(NC=C2C(=O)CC(c3ccccc3)CC2=O)cc1 (stereo not drawn),0.01 K
18,NC(=O)c1ccc(COC(=O)c2ccc(S(N)(=O)=O)cc2)cc1,0.06 K
19,O=C(Cc1noc2ccccc12)NCc1ccc(N2CCCC2=O)cc1,0.05 K
20,O=C(CCc1cccnc1)NCCCc1nc2ccccc2[nH]1,-0.28 K
21,Cc1cc(=O)oc2cc(OCC(=O)Nc3ccc4ccccc4c3)ccc12,-0.04 K
22,OC1CN(c2ncnc3c2oc2ccccc23)C1,-0.01 K
23,CS(=O)(=O)Nc1cccc(OCCNC(=O)C2=NN(Cc3ccccc3)C(=O)CC2)c1,-0.04 K

row,Compound,TSA(with NAD+) / Primary screening (TSA) / delta Tm (K)
1,COc1cc(CNC(=O)CCc2c(C)nc(N3CCOCC3)[nH]c2=O)ccc1OCc1ccccc1,-0.03 K
2,COc1ccc(NC(=O)C2=COCCO2)cc1S(=O)(=O)N1CCOCC1,-0.29 K
3,Cc1ccc(N(C)S(=O)(=O)c2cccc(C(=O)NCCc3c[nH]c4ccccc34)c2)cc1,0.18 K
4,O=[N+]([O-])c1ccc(/C=C/C2=NN(c3ccccc3)C(c3ccco3)C2)o1 (stereo not drawn),0.06 K
5,O[C@H]1CCN(c2ncnc3ccsc23)C1,0.01 K
6,O=C(CN1CCc2ccccc21)Nc1cnc2ccccc2c1,-0.13 K
7,O=C(O)CN1C(=O)CSC1=S,-0.09 K
8,NC(=O)c1ccc(F)c(NC(=O)NCc2ccc(N3CCCCCC3)nc2)c1,-0.01 K
9,COc1ccc(N2C(=O)/C(=C/NNC(=O)C34CC5CC(CC(C5)C3)C4)c3ccccc3C2=O)cc1,0.18 K
10,CC1CCCCN1CCCCNC(=O)c1ccc2c(c1)C(=O)N(CCc1ccccc1)C2=O (stereo not drawn),-0.03 K
11,COCCNc1oc2c(c1-c1ccccc1[N+](=O)[O-])c(=O)oc1ccc(C)cc12,-0.23 K
12,NC(=O)c1ccc(N2CCCC2)c(NC(=O)CCNC(=O)Cc2ccccc2)c1,0.16 K
13,O=C(/C=C/c1ccc2c(c1)OCO2)N1CCCC1c1nc2ccccc2s1 (stereo not drawn),-0.11 K
14,CCOC(=O)N(C)CC(=O)Nc1ccc(-n2cnc3ccccc32)nc1,0.15 K
15,COc1cccc(NC(=O)COc2ccc(C(=O)NC(C)C34CC5CC(CC(C5)C3)C4)cc2)c1 (stereo not drawn),-0.12 K
16,O=c1c2ccccc2ncn1CC(O)c1cccc(F)c1 (stereo not drawn),-0.19 K
17,CC1CCc2c(sc3nc4c5ccccc5c5nnnn5n4c(=O)c23)C1 (stereo not drawn),-0.02 K
18,COc1cc(CN(C)C(=O)CN2C(=O)COc3ccccc32)ccc1OCc1ccccc1,-0.02 K
19,COC(=O)Cn1cnc2c(N)ncnc21,-0.03 K
20,COc1ccc(C)cc1N1CC(C(=O)N2CCC(OC)CC2)CC1=O (stereo not drawn),0.06 K
21,O=C1NC(=S)NC(=O)C1=NNc1c(F)cccc1F,-0.05 K

# Arranged by molecular weight (descending): some entries from above
row,Compound,TSA(with NAD+) / Primary screening (TSA) / delta Tm (K)
8,COc1ccccc1C(=O)NC(CCSC)C(=O)NCCN1C(=O)S/C(=C/c2ccc3c(c2)OCO3)C1=O (stereo not drawn),0.07 K
12,NC(=O)c1ccc(N2CCCC2)c(NC(=O)CCNC(=O)Cc2ccccc2)c1,0.16 K
5,COCC(C)C(=O)O (stereo not drawn),0.01 K
